# Data: patent US10143748B2, “B-cell reduction using CD37-specific and CD20-specific binding molecules” (Emergent Product Development Seattle, LLC, priority 2005, dated 2018)
# Some results were stated once for a whole list of compounds, not compound by compound.
# Test system: CD19 and CD40 positive lymphocytes (B cells)
# Assay: depletion of normal B cells from human PBMC cultures
# Assay type: cell-based
# Settings: 1 μg/mL
# Protocol: Human PBMCs were isolated from whole blood by LSM density centrifugation. […] A portion of the incubation reaction was harvested at 48 hours and again at 72 hours after initiation of the experiment. PBMCs were washed and incubated with FITC anti-CD19, FITC anti-CD40, or FITC anti-CD3 for 45 minutes on ice.
substance,measurement,setting,value
G28-1 scFv VH11S(SSC—P)H WCH2 WCH3 [TRU-016],decrease in number of CD19 and CD40 positive lymphocytes in PBMC culture,after 48 hours,1.5-2 fold
same,decrease in number of CD19 and CD40 positive lymphocytes in PBMC culture,after 72 hours,more than 3 fold
